Assay results published in patent EP2724723A1, “Tegaserod for use in the treatment of nerve injuries” (Universitätsklinikum Hamburg-Eppendorf, priority 2012, dated 2014).
At least one compound was matched to its structure with a doubt left.

Test system: anti-PSA antibody 735
Assay: Competition ELISA: antibody 735 binding to immobilized PSA mimicking peptide
Details: increasing concentrations, pre-incubated with antibody 735 (0.1 µg/ml) for 1 h
Protocol: To confirm that the compounds identified in the screening from Example 1 are indeed PSA mimetics, binding of tegaserod maleate ((E)-but-2-enedioic acid; 1-[[(Z)-(5-methoxyindol-3-ylidene) methyl]amino]-2-pentylguanidine; hereafter termed tegaserod) and the control compound nitrendipine (5-O-ethyl 3-O-methyl-2,6-dimethyl-4-(3-nitrophenyl)-1,4-dihydropyridine-3,5-dicarboxylate) to the PSA antibody 735 was analyzed by competition ELISA. 384-well flat bottom microtiter plates (Corning Life Sciences) were coated in triplicates with 25 µl of PSA mimicking peptide coupled to catalase (3 µg/ml) or PBS alone at 4°C overnight. All following steps were carried out at room temperature. After blocking with 1% BSA in PBS for 1 h, the wells were washed three times for 5 min with PBS containing 0.05% Tween-20 (PBST). Wells were incubated with increasing concentrations of tegaserod and nitrendipine, pre-incubated with anti-PSA antibody 735 (0.1 µg/ml) for 1 h. […] The reaction was stopped by addition of 50 µl 2.5 M H2SO4 and quantified using an ELISA reader (µQuant, Bio-TEK, Winooski, VT, USA) at 490 nm and the software KCjunior (Bio-TEK).

SMILES: CCOC(=O)C1=C(C)NC(C)=C(C(=O)OC)C1c1cccc([N+](=O)[O-])c1 (stereo not shown) [nitrendipine, 5-O-ethyl 3-O-methyl-2,6-dimethyl-4-(3-nitrophenyl)-1,4-dihydropyridine-3,5-dicarboxylate]
- inhibition of binding of mAb 735 with the PSA peptide mimic (in words): no dose dependency to impede antibody binding
